Over roughly 33,000 sequences, “E-score (-0.5 to 0.5)” has its median near -0.015; the highest 2% begin near 0.3. The list shows a part of the results.
target: T1, Abf1 (UniProt P14164); test: PBM E-score (8-mer binding enrichment) (E-score (-0.5 to 0.5)); higher = stronger / more preferred TF binding; details: protein concentration: 200 nM; construct: GST-full length
T1 sequence: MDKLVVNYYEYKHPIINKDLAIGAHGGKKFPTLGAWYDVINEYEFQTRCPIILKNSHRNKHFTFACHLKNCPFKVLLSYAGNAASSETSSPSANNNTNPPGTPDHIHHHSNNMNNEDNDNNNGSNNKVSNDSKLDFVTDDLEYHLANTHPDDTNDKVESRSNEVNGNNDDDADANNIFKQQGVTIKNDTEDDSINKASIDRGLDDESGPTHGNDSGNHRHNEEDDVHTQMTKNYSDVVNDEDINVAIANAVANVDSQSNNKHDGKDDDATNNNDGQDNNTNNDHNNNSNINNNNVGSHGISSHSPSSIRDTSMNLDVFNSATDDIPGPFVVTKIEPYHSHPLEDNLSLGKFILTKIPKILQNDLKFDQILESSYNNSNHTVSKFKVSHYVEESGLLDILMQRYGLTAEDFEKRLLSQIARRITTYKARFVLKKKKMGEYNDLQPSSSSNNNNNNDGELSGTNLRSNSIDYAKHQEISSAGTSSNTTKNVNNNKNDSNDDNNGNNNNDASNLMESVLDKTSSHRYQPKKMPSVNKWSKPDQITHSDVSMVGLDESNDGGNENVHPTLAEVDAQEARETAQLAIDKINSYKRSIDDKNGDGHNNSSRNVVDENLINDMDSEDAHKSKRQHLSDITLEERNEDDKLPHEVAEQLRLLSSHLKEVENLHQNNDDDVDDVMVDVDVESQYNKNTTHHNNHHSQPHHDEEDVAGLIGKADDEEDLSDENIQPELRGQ
Outline: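 E-scores (a modified Wilcoxon-Mann-Whitney statistic) were assigned by the Universal PBM Analysis Suite to every ungapped eight-base word pooled with its reverse complement. The input came from universal all-10-mer Agilent arrays made double-stranded by primer extension and probed with GST-tagged yeast transcription factors at about 100-200 nM. Fluorescent anti-GST detected bound protein, and masliner normalised the scans.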

Sequence	PBM E-score
ATCGCGCA	0.181
CACGTCCA	-0.0875
AGACCTGA	-0.121
TCCTTAGA	-0.0788
CAGCCGAC	-0.17
ATTAGTTA	0.237
TAGGGAGA	-0.0106
AGGCGTGC	0.0321
AGACTATC	-0.0875
ATTCAGTG	-0.0205
ACAGTAGG	-0.0881
AGCGCACG	-0.14
CGTGAACC	-0.019
GGTATCGA	0.0737
CTAATGCC	-0.208
ACCTCACG	0.0545
AGAGGATG	-0.0558
AACACAGG	-0.154
GTAACAAA	0.141
CACTGACC	-0.257
CTCTCAAC	-0.0871
GCCTCTTA	-0.0192
CTTCGGTA	-0.145
AGTTCGAA	0.00999
AGACAAAT	0.0624

Sequence	PBM E-score
CTTCGCTA	0.00431
TCAGAGAA	-0.0789
AGGCTAAG	-0.162
CGATTACC	0.103
CATATAAG	0.0553
ACCGTATC	0.225
AATACCGC	-0.0766
CCACTAGG	-0.26
CTTCATAA	-0.0242
GGTCGCAC	-0.145
CGACAACA	0.115
ATTTTCCA	0.236
CATTGACC	0.0479
GGGTCCTA	-0.172
ACTTCCAT	0.0613
GCTGTGCC	-0.18
CCAATAAG	-0.0114
GAGCTACC	-0.0673
GTATCCGA	-0.0701
CCACGGAA	0.273
GAAGTCGC	-0.0321
ACGCCTTA	0.0359
GAGAAGCC	-0.0881
TGCCCGAA	0.0588
GTACACAC	0.0307

Sequence	PBM E-score
GAGTGGCA	0.0148
AGTCTCAA	-0.0389
ACTACCTG	-0.151
ACAAGGCA	-0.0394
CAGCCACG	0.07
AAACTCTT	-0.164
GACAAGGA	0.0819
CTAGTGCC	-0.114
CCTTGGAA	-0.0298
GTGGCGGA	-0.105
AGGATACA	0.147
CCTGAGCA	-0.0528
ACTACCAC	-0.109
AATCCGTC	0.0665
CGAAGAAG	0.123
GAACGGGA	-0.0962
ACCCAAGC	-0.215
AGGGATTA	0.038
AGAAATCC	-0.0538
GGCGTAAA	-0.0418
ACCGTCGA	0.18
ATTGAGAA	0.19
AGTGGTAA	0.0352
CGTCCATC	0.0706
CGAAGATC	0.107

Sequence	PBM E-score
ACCTGTCG	-0.065
CGTCGAAG	0.188
CTTGATGA	0.197
CTAAATAC	0.19
TGACTAAA	0.114
AAAAGGCT	-0.0975
ACTAGGTA	0.0698
CCGACATA	0.132
TGGGCCCA	-0.0418
TAACCAAA	0.104
CACAAACC	-0.231
ATGCACGA	0.362
AACTACAT	0.0192
ACTTCTAT	0.0524
CCTCCAGG	-0.309
CTCAGGAC	-0.0804
CCCCCAAG	-0.284
AGCCGAAC	-0.0523
CCAGCACG	0.104
GACCGCAA	-0.0702
GCAACCTA	0.00521
GCGGTTCA	-0.188
CATCTCTA	0.0193
AAGAACCG	-0.0787
ACATTCCT	-0.0383

Sequence	PBM E-score
ACGAACAG	0.0741
CGCCGATC	-0.0795
TGGGACAA	0.0227
GCCAAAAA	0.0859
ATAAACAC	-0.0853
CGCCCTGA	-0.0612
CTGGTATC	0.0225
GCATGAAA	-0.0167
GCACCGCC	-0.318
ACGATCTG	0.203
AGCAGGGC	-0.105
GATCGGTA	0.0856
AAGACATT	0.0353
ACATGGAG	-0.0303
ACAAGTGT	-0.00562
ATAATTAA	0.274
AGCATCAC	-0.0618
GAGCTCCA	-0.0124
CAAGTTTA	-0.117
GCGGTTAC	0.115
GATCGAAC	0.00758
CCCAGTGC	-0.126
CGAACGAA	0.09
AGCTCTCA	-0.014
GTTTTGCA	0.131

Sequence	PBM E-score
GAGCTTCA	-0.131
AGTTTCTG	-0.0446
ACGAATTG	0.202
CTAAGCAA	-0.0898
GTTTAGTA	0.155
AAGCTCTG	-0.0961
AATCCGAG	-0.145
AGGAATGC	-0.18
AACAGCAC	-0.13
TAACAGCA	0.0285
GCTGAGGA	-0.131
ACGGTTAG	-0.0669
GCATCGGA	-0.0251
CGGATTCA	-0.138
ACGTACCA	0.0604
AATCTCTC	0.0576
CTTTGACC	-0.0936
GGCCTTGA	-0.16
TCTTTCAA	-0.107
AGTCTTTG	-0.138
ACCACTCG	0.187
CCCTCCTC	-0.292
GTAGTGGA	0.123
ACCCTAGC	-0.191
ATACATAC	0.0699

Sequence	PBM E-score
AAATAAGT	0.199
ATAGCAGC	-0.0629
CGTCATGA	0.196
ATACCGAG	-0.0976
ACTGGTAC	-0.0194
ATTTGCCC	-0.00616
CGTGAACA	0.22
AATTAGGC	-0.0201
ATATGTGC	-0.0574
CTCATTTC	0.0189
GGGTATTA	-0.106
ACCCGAAA	-0.193
ACGAGGTC	0.172
GGCCGTAC	0.367
GCGGGTAA	-0.127
AGCATTAT	0.18
CATAGAGG	-0.0381
CGTACCGA	0.232
CCTTTCTC	-0.154
CAGTCATC	-0.136
CCACCTGC	-0.19
ATATATTC	0.179
CTGCATCC	-0.0692
ACAAACAA	0.0373
AATCCGGC	-0.21

Taken from the listing for reference:
Sequence	PBM E-score
CCTTTCTC	-0.154
CAGTCATC	-0.136
CCACCTGC	-0.19
ATATATTC	0.179
CTGCATCC	-0.0692
ACAAACAA	0.0373
AATCCGGC	-0.21

More results follow.

Sequence	PBM E-score
GTCCTTAA	0.163
CCTAATTA	-0.166
CCCCCATC	-0.367
TCCGTCCA	-0.0678
ATAGTCTA	-0.138
TAGGTCAA	0.0576
CGTAATAG	0.112
AGTCGTGC	0.0998
AGGTCCCC	-0.261
CAGGTGCG	0.0401
ACTCAATC	0.0592
TAGTTAGA	0.0462
ATGTTAGC	0.0355
AGTTGCAC	0.0117
ACGTTCGC	-0.118
CCATGAAC	0.0596
AGAACGGC	0.178
TATGGACA	0.0549
AATCAACG	0.0811
ACTGGCTC	-0.0908
GTCGAAAC	-0.0844
ATGAACGC	-0.0808
CAAAAATA	0.153
GGTTGTAC	-0.019
CTACAGGC	-0.279

Sequence	PBM E-score
CACTTCGA	0.223
GCCACGCC	-0.12
ATAGCGTC	-0.062
GATTCAGC	-0.147
ACATGTTG	0.0956
CCAAATCC	-0.212
ACATTTCC	0.211
GCGAGGGA	-0.134
CTATCCGA	-0.0191
CAGACTGG	-0.159
CCACATCC	-0.0571
TCCTATAA	0.0562
TGAAGAAA	-0.0394
GAAGACAA	0.137
CAATAATG	-0.0471
GCCTAGAA	-0.0468
TGTTCCAA	-0.0305
CAAAGGTA	0.105
GGCACAAC	-0.105
GTTCCTAA	-0.0556
ACATTGAC	0.0983
CCAACTCA	-0.154
GCATGAGA	0.0456
CGAGCTCC	0.0327
CCTCACAC	-0.123

Sequence	PBM E-score
ACTACTGC	-0.0574
CAAACGGG	-0.0186
AGGGGTGA	0.0129
ACTATCGA	0.0926
ACTTTGGC	-0.142
ATAAAACG	0.284
CTCGCTGA	-0.0237
CCGCAGCG	-0.267
GAACCGTA	0.168
GCGTAAAC	-0.0699
CAGGGAAA	-0.16
AAGCTGGC	-0.0327
AGGTTCGG	-0.15
GATATGGA	0.235
AGGCGACA	-0.157
ATACATTA	0.208
ATCCGTGG	-0.0109
AATCCGAA	-0.214
GCATTTCA	-0.037
AGACCGGC	-0.168
AATGTCCC	0.0778
CAGAACCC	-0.131
CTGCCCTC	-0.279
GACTAGTC	-0.214
AGTATACC	-0.00776

Sequence	PBM E-score
GTACCCAA	0.0903
CACATCTA	0.0401
AGAACCGA	0.107
GCGACCAC	0.134
CGTATCCC	0.111
AGAACCAG	-0.0804
GGTTCAAA	0.0158
ATTAAGTG	0.092
CGCACCAG	-0.0988
CAGGAATC	0.158
TATAATGA	0.125
ATTTCATC	0.0735
GCGCCACC	-0.177
GCGCGGGA	-0.00898
GCAGCAGA	-0.205
ATCTGTGG	-0.257
GCGTTACA	0.171
ATTCCGGA	0.0747
GCAAAAAA	0.0891
GAAAAAGA	-0.00194
GCCCTGTA	-0.214
AGTACTTC	-0.0726
ATAATCCG	-0.0846
GTTTTCTA	-0.0572
AGTCGTAG	0.14

An excerpt of these results, as labelled records.
ATTTCATC
  PBM E-score: 0.0735
GCGCCACC
  PBM E-score: -0.177

Fetched one by one from above:
Sequence	PBM E-score
ACAAACAA	0.0373
ACTTTGGC	-0.142
AATCCGAG	-0.145
ATTGAGAA	0.19

The list goes on.

Sequence	PBM E-score
GCGTTTCC	-0.162
GCATATTA	0.203
CCTTGGCC	-0.371
CAACGCTC	0.0635
CAGAGGAG	-0.0726
ATTGGCCG	-0.117
CCTTTCAC	0.11
AGCGTGAT	0.265
GTACGTCA	0.286
TACAGGAA	-0.0455
CTACCTTA	-0.2
ATGATTCG	0.083
GAGTTCTA	0.0306
CAGACGCC	-0.155
ATTTGCAG	0.147
GCGTTCCA	-0.0837
AGGCGAAG	-0.028
CCGCCCAA	-0.195
CTTGTTGA	-0.0181
AATTCTAA	0.0106
ACATTGCT	0.119
TGGGGAAA	-0.0327
CGGTCCTA	-0.103
CAGCATAA	0.0446
GGATTCAA	-0.0815

Sequence	PBM E-score
CCTAAATC	0.154
CATAAAAA	0.14
AAACATCG	-0.078
AACACCTT	-0.00949
GACGAGGC	-0.107
TAGCCACA	0.06
TCTTCCAA	-0.0657
GACGTTCC	0.0709
GAATACTA	0.0721
ATAGGTTA	0.0502
AGTAGACT	-0.0456
CTAGGTTC	-0.263
GGTACACA	-0.239
CACAGATG	-0.172
AATCCGTG	0.0724
CAGGAGAA	-0.104
CGTGCGGA	0.239
ACCCAGAC	-0.0546
ACATTCTC	0.0503
ACACCGCG	-0.0294
CCTGTGAG	-0.0224
GAACCGGC	-0.181
CCTTATCA	0.236
AATCGGCT	-0.0263
GCCCATCC	-0.137

Sequence	PBM E-score
CATTGTGC	-0.115
TACTAACA	0.0524
CGGCGGCC	-0.115
CAAAGTTC	-0.133
CTTATTAA	0.11
CAGGGCAG	-0.073
AGTATTCG	0.141
CGTTCGCC	0.0422
CAGGGGAA	-0.223
CTAGTTTC	0.0114
GAACCGCC	-0.206
TCCCCGGA	-0.0899
CGTAAGGC	0.0323
GAAAATTC	0.171
TCCTCGAA	0.0469
ACCTCGGC	-0.137
ACAGTGCC	0.084
GACTTAGC	-0.0904
ACTTGTAG	-0.0733

Source: the supplement of paper PMC3334620
